# Laboratory results reported in paper PMC11051826, “Screening and Application of DNA Aptamers for Heparin-Binding Protein”.
# Target: T1, Heparin-binding protein (HBP) (Homo sapiens) (UniProt P20160)
# T1 sequence (looked up, limits assumed): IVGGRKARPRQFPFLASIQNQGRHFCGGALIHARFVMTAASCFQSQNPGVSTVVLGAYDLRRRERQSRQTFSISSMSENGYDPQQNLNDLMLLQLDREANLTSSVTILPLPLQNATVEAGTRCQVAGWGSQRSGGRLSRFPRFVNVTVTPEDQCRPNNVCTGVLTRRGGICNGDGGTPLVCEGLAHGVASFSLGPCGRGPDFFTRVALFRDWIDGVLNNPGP
# Assay: strand displacement (PAGE, Exo III/RCA fluorescence)
# Details: HBP binds Apt-01(74) and releases C2-13; commercial protein
sequence,measurement,value
TTCAGCACTCCACGCATAGCTTCACCTACCGCAATCCGTTGCTCAGTGCTACCGCACCTATGCGTGCTACCGTG / CTTCACGGTAGCACGC [Apt-01(74)/C2-13],binding result,binds

# For at least one entry, the source does not settle the construct or the ends of the probe. At least one verdict was read from the data and is not stated in words by the source. Tags and fusion partners may be left off the protein sequences shown.
